The results in this text go back to US7291768.

Amino acid sequences for entries named in this document (tags omitted). Chains listed by the source or under a name are the forms on record and can include a tag or linker.
UniProt B8BI93, other isoform, or with tags, fused parts or gaps: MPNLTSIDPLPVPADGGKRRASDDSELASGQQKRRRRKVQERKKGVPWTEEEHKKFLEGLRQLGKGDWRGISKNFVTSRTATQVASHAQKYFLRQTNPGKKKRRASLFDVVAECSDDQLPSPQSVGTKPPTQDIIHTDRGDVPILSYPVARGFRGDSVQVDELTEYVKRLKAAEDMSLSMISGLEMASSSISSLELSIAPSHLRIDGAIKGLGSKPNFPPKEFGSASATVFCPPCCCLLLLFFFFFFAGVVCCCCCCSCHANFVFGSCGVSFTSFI

The data set addresses GAD-OsMYBS2 (Oryza sativa) (UniProt B8BI93). In words: one hybrid. Particulars: LacZ increased; protein in cells; protein details: GAL4 activation domain fusion, yeast.

“AATTCTATCCATATCCATATCCATATCCATATCCATATCCAC / GTGGATATGGATATGGATATGGATATGGATATGGATAG [6xTATCCA]”: the “activity on this sequence” value is on record as “active”.
